Laboratory results taken from patent US20150153365A1.
These are yes or no findings as the source states them, for the method shown. Some binding calls cover weakened binding; strength is not graded here.

What was measured:
[1] = target: T1, zebrafish aplnra (zebrafish) (UniProt Q7SZP9); assay: AP-ELA binding assay on transfected 293T cells (FIG. 7G)
T1 sequence (looked up): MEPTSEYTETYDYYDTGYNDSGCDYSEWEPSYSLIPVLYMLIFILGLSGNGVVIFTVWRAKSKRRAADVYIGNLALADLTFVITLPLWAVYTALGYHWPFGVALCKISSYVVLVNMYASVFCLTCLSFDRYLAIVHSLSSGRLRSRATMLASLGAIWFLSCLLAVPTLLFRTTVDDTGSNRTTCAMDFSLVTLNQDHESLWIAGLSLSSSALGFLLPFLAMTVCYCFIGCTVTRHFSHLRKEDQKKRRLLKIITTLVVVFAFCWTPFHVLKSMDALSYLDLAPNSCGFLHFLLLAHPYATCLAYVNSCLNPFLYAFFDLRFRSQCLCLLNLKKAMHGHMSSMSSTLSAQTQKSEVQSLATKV

[2] = target: T1, zebrafish aplnra (zebrafish); assay: AP-ELA binding assay on transfected HEK293T cells, chromogenic alkaline phosphatase read-out

binding [1]: binds
binding [2]: binds
Binder: QRPVNLTMRRKLRKHNCLQRRCMPLHSRVPFP (peptide, not shown: large carriers) [ELA conjugated to Alkaline Phosphatase (AP-ELA)]
